Publication PMC13172546
These are yes or no findings as the source states them, for the method shown. For some assays here: Binding seen in cells or lysates may run through a third protein. Some entries that bind do so weakly or less than the wild type.

Amino acid sequences for entries named in this document (tags omitted).
UniProt P46937: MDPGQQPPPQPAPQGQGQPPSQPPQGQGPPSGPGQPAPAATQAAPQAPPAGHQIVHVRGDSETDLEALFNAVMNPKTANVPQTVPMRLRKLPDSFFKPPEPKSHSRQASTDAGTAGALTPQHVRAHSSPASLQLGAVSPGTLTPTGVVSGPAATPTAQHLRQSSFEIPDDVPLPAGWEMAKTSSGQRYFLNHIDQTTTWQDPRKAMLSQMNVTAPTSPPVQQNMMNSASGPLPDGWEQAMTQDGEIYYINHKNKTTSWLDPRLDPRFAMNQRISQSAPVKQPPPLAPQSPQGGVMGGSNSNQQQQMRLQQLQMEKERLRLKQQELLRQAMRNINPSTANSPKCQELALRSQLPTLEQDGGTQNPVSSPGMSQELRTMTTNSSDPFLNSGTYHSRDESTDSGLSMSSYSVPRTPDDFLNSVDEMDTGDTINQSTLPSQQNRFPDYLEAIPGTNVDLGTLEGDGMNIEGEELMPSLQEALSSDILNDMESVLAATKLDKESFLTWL
UniProt Q2KHR3: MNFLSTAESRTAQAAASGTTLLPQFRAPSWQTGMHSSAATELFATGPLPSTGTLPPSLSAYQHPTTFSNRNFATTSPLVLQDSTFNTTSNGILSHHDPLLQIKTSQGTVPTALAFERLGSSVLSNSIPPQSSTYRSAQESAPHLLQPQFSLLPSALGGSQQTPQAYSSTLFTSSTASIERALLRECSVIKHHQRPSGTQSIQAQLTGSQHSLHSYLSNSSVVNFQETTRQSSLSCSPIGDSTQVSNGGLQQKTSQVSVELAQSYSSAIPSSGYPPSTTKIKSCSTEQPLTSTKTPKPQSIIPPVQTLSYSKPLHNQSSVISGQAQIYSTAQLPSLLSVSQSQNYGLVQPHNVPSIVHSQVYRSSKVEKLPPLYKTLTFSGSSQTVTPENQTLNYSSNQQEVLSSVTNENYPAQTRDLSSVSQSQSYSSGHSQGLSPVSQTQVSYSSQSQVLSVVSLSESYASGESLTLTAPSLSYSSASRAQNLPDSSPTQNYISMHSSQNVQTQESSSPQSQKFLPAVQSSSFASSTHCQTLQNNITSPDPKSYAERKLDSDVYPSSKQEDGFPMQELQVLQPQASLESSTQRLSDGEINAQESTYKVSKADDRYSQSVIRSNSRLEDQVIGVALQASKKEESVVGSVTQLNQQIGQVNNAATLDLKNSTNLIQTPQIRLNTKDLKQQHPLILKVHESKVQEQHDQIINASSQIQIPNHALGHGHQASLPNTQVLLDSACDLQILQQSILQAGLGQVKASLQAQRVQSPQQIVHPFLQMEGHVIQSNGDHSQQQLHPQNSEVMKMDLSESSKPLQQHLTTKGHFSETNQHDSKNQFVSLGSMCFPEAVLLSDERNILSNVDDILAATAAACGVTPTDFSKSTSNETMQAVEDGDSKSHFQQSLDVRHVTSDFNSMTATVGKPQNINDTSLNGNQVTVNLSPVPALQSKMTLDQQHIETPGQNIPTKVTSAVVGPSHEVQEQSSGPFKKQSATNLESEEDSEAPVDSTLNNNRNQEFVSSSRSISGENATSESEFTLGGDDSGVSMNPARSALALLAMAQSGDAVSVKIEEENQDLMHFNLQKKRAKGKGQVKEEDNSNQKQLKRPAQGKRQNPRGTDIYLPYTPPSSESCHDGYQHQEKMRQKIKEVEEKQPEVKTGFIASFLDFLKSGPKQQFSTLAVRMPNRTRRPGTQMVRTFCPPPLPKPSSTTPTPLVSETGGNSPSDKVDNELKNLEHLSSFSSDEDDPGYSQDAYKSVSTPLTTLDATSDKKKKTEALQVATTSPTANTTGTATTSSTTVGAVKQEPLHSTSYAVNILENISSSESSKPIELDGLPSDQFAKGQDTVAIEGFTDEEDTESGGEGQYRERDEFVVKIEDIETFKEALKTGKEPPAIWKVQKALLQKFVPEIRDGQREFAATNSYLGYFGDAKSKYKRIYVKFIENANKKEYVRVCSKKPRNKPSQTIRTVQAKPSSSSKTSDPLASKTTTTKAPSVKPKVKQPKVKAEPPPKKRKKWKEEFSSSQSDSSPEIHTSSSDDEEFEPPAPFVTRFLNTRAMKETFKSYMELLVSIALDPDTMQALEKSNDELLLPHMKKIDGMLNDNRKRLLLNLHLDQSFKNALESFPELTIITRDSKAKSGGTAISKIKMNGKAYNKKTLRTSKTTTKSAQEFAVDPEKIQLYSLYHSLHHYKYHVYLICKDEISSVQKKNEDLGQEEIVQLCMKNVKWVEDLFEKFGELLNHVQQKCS

Columns and labels:
[1] = molecular target: YAP1-MYC-BIR2 fusion protein (human) (UniProt P46937); assay: co-IP; YAP1 antibody immunoprecipitation in the doxycycline-inducible YAP1-Myc-Bir2 hESC line with and without doxycycline; IPH buffer (50 mM Tris/HCl, 150 mM NaCl, 5 mM EDTA, 0.5% Igepal); western blot with QSER1, TEAD4 and YAP1 antibodies
[2] = molecular target: YAP1 (endogenous) (human (endogenous in H1 hESCs)) (UniProt P46937); assay: SEC; nuclear extracts of WT H1 hESCs on a Superose 6 Increase 10/300 GL column in 1x PBS; fractions analysed by western blot for QSER1 and YAP1

For QSER1 (from UniProt Q2KHR3 1-1735), the binding [1] was “binds” and the binding [2] was “binds”.
